Laboratory results taken from USRE46907E1, “Suppression of cancer growth and metastasis using nordihydroguaiaretic acid derivatives with metabolic modulators” (THE JOHNS HOPKINS UNIVERSITY, priority 2008, dated 2018).
At least one compound was matched to its structure with a doubt left.

Tested on: LNCaP human prostate cancer cells
Type: cell-based
Details: 24 hrs
Method: Cell Culture Either cell line 4T1 or 67NR was a gift from Dr. Miller (20). The cells were cultured in RPMI1640 medium supplemented with glucose (14 mM), pyruvate (1 mM), penicillin (100 units/ml), streptomycin (100 μg/ml), and fetal bovine serum (10%), buffered with 25 mM HEPES (pH 7.4). LNCaP human prostate cancer cell line was purchased from American Type Culture Collection (Manassas, Va.). The cell line was cultured in RPMI1640 medium supplemented with glucose (14 mM), pyruvate (1 mM), penicillin (100 units/ml), streptomycin (100 μg/ml), and fetal bovine serum (10%). Drugs were dissolved in dimethyl sulfoxide (DMSO) at a suitable concentration so that the final concentration of DMSO in the medium was less than 0.1%.
Apoptosis assay: Simple TLTNEL assay was conducted by using TUNEL apoptosis detection kit (Upstate, Temecula, Calif.) with some modification. For the evaluation of the effect of PKCδ wild type and dominant negative vectors on TUNEL-positive cell death, we first transfected 4T1 or 67NR cells with these vectors by effectene (Qiagen, Valencia, Calif.). Wild type PKCδ vector is constructed from wild type PKCδ gene and pEGFP (Promega, Madison, Wis.). […] Cell death was evaluated by dividing the number of TUNEL-positive cells among the cells positive with anti-GFP staining by the number of these GFP-positive cells.

Compound: CO[C@H]1C[C@@H]2CC[C@@H](C)[C@@](O)(O2)C(=O)C(=O)N2CCCC[C@H]2C(=O)O[C@H]([C@H](C)C[C@@H]2CC[C@@H](O)[C@H](OC)C2)CC(=O)[C@H](C)/C=C(\C)[C@@H](O)[C@@H](OC)C(=O)[C@H](C)C[C@H](C)/C=C/C=C/C=C/1C [Rapamycin]
- effect on TUNEL-positive cell death induced by M4N: synergistically augmented TUNEL-positive cell death induced by M4N
